Here are results for one molecule from doi:10.1101/2021.04.21.440662.

Chains of the proteins cited; added tags and fusions are not shown. Lines headed by an entry give the natural chain unless they say otherwise; changes in a name come on top.
UniProt P0AEN4, whole entry, looked up, stated change not applied: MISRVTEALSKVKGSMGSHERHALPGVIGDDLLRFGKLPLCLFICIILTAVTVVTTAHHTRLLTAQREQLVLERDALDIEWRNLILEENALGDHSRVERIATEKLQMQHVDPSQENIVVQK

The target in this test is T1, His-FtsB (E. coli) (UniProt P0A6S5).
T1 sequence: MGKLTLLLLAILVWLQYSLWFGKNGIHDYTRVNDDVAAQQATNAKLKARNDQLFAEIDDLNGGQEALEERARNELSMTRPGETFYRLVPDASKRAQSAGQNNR
Nature of the test: co-purification.

These are yes or no findings as the source states them, for the method shown. Some entries that bind do so weakly or less than the wild type. Sequences can lack the tags named with a protein.

B1: Strep-FtsL_(35-121)-C41A-C45A (domain or fragment, UniProt P0AEN4 35-121)
chain: FGKLPLALFIAIILTAVTVVTTAHHTRLLTAQREQLVLERDALDIEWRNLILEENALGDHSRVERIATEKLQMQHVDPSQENIVVQK
With B1, the binding result is recorded as “binds”.
